Experimental data reported in PMC9640671.
These are yes or no findings as the source states them, for the method shown. Binding seen in cells or lysates may run through a third protein. Some binding calls cover weakened binding; strength is not graded here. Blank lines part the entries; values can stand above or below the molecule they belong to.

Chains of the proteins cited; added tags and fusions are not shown.
UniProt P51150: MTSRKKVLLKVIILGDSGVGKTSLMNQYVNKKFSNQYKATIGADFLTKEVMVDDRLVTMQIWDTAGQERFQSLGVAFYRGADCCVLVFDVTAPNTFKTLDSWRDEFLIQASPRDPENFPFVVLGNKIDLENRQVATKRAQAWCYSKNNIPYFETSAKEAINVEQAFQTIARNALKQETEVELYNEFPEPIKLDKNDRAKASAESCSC
UniProt P47811: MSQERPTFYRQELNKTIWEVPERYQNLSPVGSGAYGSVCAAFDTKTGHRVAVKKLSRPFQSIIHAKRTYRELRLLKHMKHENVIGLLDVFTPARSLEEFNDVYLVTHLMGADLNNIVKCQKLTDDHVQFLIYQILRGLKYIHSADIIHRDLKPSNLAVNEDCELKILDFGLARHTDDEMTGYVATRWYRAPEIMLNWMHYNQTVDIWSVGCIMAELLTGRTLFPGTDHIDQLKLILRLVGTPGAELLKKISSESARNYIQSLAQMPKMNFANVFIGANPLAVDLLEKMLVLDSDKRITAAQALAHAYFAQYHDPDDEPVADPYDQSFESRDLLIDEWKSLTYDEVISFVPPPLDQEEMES

Assays:
Flag-tagged Rab7a = Flag-tagged Rab7a (UniProt P51150); assay: co-IP; HEK 293T cells co-transfected with Flag-tagged Rab7a and HA-tagged MAPK14 constructs; immunoprecipitation from lysate, immunoblot
[1] = biological target: MAPK14 (endogenous, RAW264.7) (mouse (endogenous in RAW264.7)) (UniProt P47811); assay: co-IP; endogenous proteins; MAPK14 immunoprecipitates of lysates of RAW264.7 stimulated with LPS (1 μg/mL) for 30 min, with or without inhibitor pretreatment for 30 min (SB203580 by the text, PD168393 by the legend); immunoblot
[2] = biological target: EGFR (epidermal growth factor receptor), endogenous in BMDM (mouse (endogenous in BMDM)) (UniProt Q01279); assay: co-IP; endogenous proteins; BMDM treated with LPS (1 µg/mL) for 1 h with or without PD168393 (10 μM) pretreatment for 30 min; IP lysis buffer, anti-EGFR antibody, Protein A/G magnetic beads, 4 °C; immunoblot

- binding (Flag-tagged Rab7a): binds
Molecule: HA-tagged MAPK14 (from UniProt P47811 1-360) (enzyme)

- binding [1]: binds
Molecule: Rab7a (endogenous, RAW264.7) (from UniProt P51150 1-207)

- binding [2]: binds
B1: Rab5a (endogenous, BMDM) (protein, UniProt Q9CQD1 1-215)
chain: MANRGATRPNGPNTGNKICQFKLVLLGESAVGKSSLVLRFVKGQFHEFQESTIGAAFLTQTVCLDDTTVKFEIWDTAGQERYHSLAPMYYRGAQAAIVVYDITNEESFARAKNWVKELQRQASPNIVIALSGNKADLANKRAVDFQEAQSYADDNSLLFMETSAKTSMNVNEIFMAIAKKLPKNEPQNPGANSARGRGVDLTEPAQPARSQCCSN
